Values from PubChem BioAssay AID1159578 (Peter MacCallum Cancer Centre, 2015)

Assay: 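siRNA pools altering how lymphatic endothelial cells close a scratch wound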 (primary screen)
System: human lymphatic endothelial cells
Reagents: siRNA pool against human genes, 40 nM
Timing: 48 h after transfection
Detection: 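High-content imaging of dye-stained cells in a scratch assay measures filled wound area and nuclei per well; duplicate means given as ratio to mock and robust z-score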
Scale: migration robust z-score: higher = faster migration into the scratch; migration relative to mock: higher = more scratch area covered than mock; nuclei per well: higher = more cells in the well
Rule for the call: 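Migration changed when robust z exceeds 2 or falls below -2 and mean nuclei number is at least 3300; otherwise not called changed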
Calls: active = migration changed; inactive = no migration change, or too few cells
The deposit covers about 18,000 reagents; shown is a part drawn at random. About 1,030 of all reagents (5.7%) count as active. 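Inactive calls also include pools with fewer than 3300 nuclei, whose migration was not assessed.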 Raw values vary from plate to plate and are shown uncorrected. A number with no mark means an inactive call.

| Target gene | PubChem SID | migration robust z-score | migration class with cell-count check | migration relative to mock | nuclei per well, duplicate mean |
| --- | --- | --- | --- | --- | --- |
| DYNLT5 (GeneID 200132) | SID255364024 | -0.26 | migration z between -2 and 2; enough cells | 0.82 | 4653 |
| HSH2D (GeneID 84941) | SID255361596 | -0.55 | migration z between -2 and 2; enough cells | 0.74 | 5320 |
| IFT122 (GeneID 55764) | SID255358843 | 0.26 | migration z between -2 and 2; enough cells | 0.96 | 4948 |
| SERPINA10 (GeneID 51156) | SID255357523 | -0.88 | migration z between -2 and 2; enough cells | 0.64 | 4622 |
| SLC6A14 (GeneID 11254) | SID255355714 | 0.13 | migration z between -2 and 2; enough cells | 0.83 | 5178 |
| ASB16-AS1 (GeneID 339201) | SID255365021 | -0.72 | migration z between -2 and 2; enough cells | 0.7 | 6168 |
| SNX8 (GeneID 29886) | SID255357193 | -2.29 (active) | migration z below -2; enough cells | 0.29 | 5546 |
| OSBPL11 (GeneID 114885) | SID255362268 | -0.75 | migration z between -2 and 2; enough cells | 0.69 | 6056 |
| RAB35 (GeneID 11021) | SID255355530 | -1.99 | migration z between -2 and 2; enough cells | 0.42 | 3310 |
| LILRB4 (GeneID 11006) | SID255355516 | -1.2 | migration z between -2 and 2; enough cells | 0.57 | 5449 |
| NDUFA11 (GeneID 126328) | SID255362705 | 0.13 | migration z between -2 and 2; enough cells | 0.83 | 5194 |
| TAS2R45 (GeneID 259291) | SID255364585 | 1.08 | migration z between -2 and 2; enough cells | 1.16 | 3311 |
| ITFG2 (GeneID 55846) | SID255358908 | -2.48 (active) | migration z below -2; enough cells | 0.24 | 5194 |
| ADAMTS17 (GeneID 170691) | SID255363916 | -1.9 | migration z between -2 and 2; enough cells | 0.44 | 6045 |
| ATE1 (GeneID 11101) | SID255355594 | 0.88 | migration z between -2 and 2; enough cells | 0.98 | 6058 |
| KCNE3 (GeneID 10008) | SID255354737 | 1.2 | migration z between -2 and 2; enough cells | 1.04 | 5607 |
| EDARADD (GeneID 128178) | SID255362782 | 0.77 | migration z between -2 and 2; enough cells | 1.08 | 5312 |
| CSNK1A1 (GeneID 1452) | SID255349126 | 0.62 | migration z between -2 and 2; enough cells | 0.92 | 4611 |
| EMC10 (GeneID 284361) | SID255364773 | 0.06 | migration z between -2 and 2; enough cells | 0.9 | 6516 |
| LPCAT2 (GeneID 54947) | SID255358293 | -1.42 | migration z between -2 and 2; enough cells | 0.52 | 5202 |

Individual results from the list.
Under “migration relative to mock”, ITFG2 (GeneID 55846) [SID255358908] has 0.24 (active)
Value for LPCAT2 (GeneID 54947) [SID255358293] under “migration robust z-score”: -1.42
For “migration class with cell-count check”, RAB35 (GeneID 11021) [SID255355530] reads migration z between -2 and 2; enough cells
Value for IFT122 (GeneID 55764) [SID255358843] under “migration robust z-score”: 0.26

Next records follow:
| Target gene | PubChem SID | migration robust z-score | migration class with cell-count check | migration relative to mock | nuclei per well, duplicate mean |
| --- | --- | --- | --- | --- | --- |
| SLC35A2 (GeneID 7355) | SID255353054 | -1.17 | migration z between -2 and 2; enough cells | 0.58 | 4575 |
| UQCR11 (GeneID 10975) | SID255355494 | 1.48 | migration z between -2 and 2; enough cells | 1.09 | 6502 |
| CEACAM1 (GeneID 634) | SID255348539 | -1.55 | migration z between -2 and 2; enough cells | 0.48 | 5343 |
| CATSPERB (GeneID 79820) | SID255360490 | 0.52 | migration z between -2 and 2; enough cells | 1.02 | 5799 |
| STRN (GeneID 6801) | SID255352683 | 0.02 | migration z between -2 and 2; enough cells | 0.89 | 7700 |
| CHRNE (GeneID 1145) | SID255348929 | -0.88 | migration z between -2 and 2; enough cells | 0.64 | 5349 |
| MGST3 (GeneID 4259) | SID255350962 | 0.18 | migration z between -2 and 2; enough cells | 0.93 | 6838 |
| STK36 (GeneID 27148) | SID255356947 | -2.1 (active) | migration z below -2; enough cells | 0.4 | 4158 |
| ITK (GeneID 3702) | SID255350562 | 0.83 | migration z between -2 and 2; enough cells | 0.97 | 5188 |
| ANKRD22 (GeneID 118932) | SID255362460 | 0.41 | migration z between -2 and 2; enough cells | 0.99 | 6020 |
| WWC2 (GeneID 80014) | SID255360626 | -1.97 | migration z between -2 and 2; enough cells | 0.38 | 5750 |
| GBP5 (GeneID 115362) | SID255362308 | 1.86 | migration z between -2 and 2; enough cells | 1.37 | 4935 |
| CCNF (GeneID 899) | SID255348738 | -1.22 | migration z between -2 and 2; enough cells | 0.57 | 5668 |
| SCG5 (GeneID 6447) | SID255352395 | -0.24 | migration z between -2 and 2; enough cells | 0.82 | 6276 |
| SYT2 (GeneID 127833) | SID255362774 | 0.06 | migration z between -2 and 2; enough cells | 0.9 | 6354 |
| TMEM161B (GeneID 153396) | SID255363563 | -0.73 | migration z between -2 and 2; enough cells | 0.7 | 6436 |
| WDR12 (GeneID 55759) | SID255358838 | 0.74 | migration z between -2 and 2; enough cells | 1.08 | 5736 |
| MYO1A (GeneID 4640) | SID255351114 | 0.36 | migration z between -2 and 2; enough cells | 0.88 | 6995 |
| ANO6 (GeneID 196527) | SID255363975 | -0.28 | migration z between -2 and 2; enough cells | 0.81 | 5774 |
